This note sets out measurements from publication PMC12040169 (PLOS Biology, 2025).

This is one part of the list.

This assay relates to T1, CTL2-GFP (C. trachomatis L2/434/Bu, GFP-expressing).
T1 construct: L2/434/Bu, GFP-expressing
Details: species or system HeLa; Intracellular C. trachomatis growth in HeLa cells, bulk GFP fluorescence relative to DMSO. The conditions noted are these: bulk GFP, single well; 28.5 h, 10 µM; inhibitor.
In the case of `O=C(COc1cccnc1)N1CCc2ccccc21` [CBK200268], the “% of control remaining” value was 96.8639%.

As for `CS(=O)(=O)c1ccc(C(=O)Nc2nc(-c3ccccc3)cs2)cc1` [CBK287716], the “% of control remaining” value worked out at 87.502%.

Turning to `CCOc1ccccc1N1CCN(C(=O)c2cc(-c3ccccc3C)nc3ccccc23)CC1` [CBK091950], the “% of control remaining” value came out at 119.587%.

As for `Cc1ccsc1CN1CCOCC1` [CBK026429], the “% of control remaining” value was determined as 126.015%.

Take `CCN(Cc1cnn(C)c1)[C@H]1CCO[C@@H](c2ccccc2-c2ccc(OC)cc2)C1` [CBK285854]: the “% of control remaining” value is given as 125.35%.

As to `CCOc1cccc(-c2ccc(Nc3ccc(Oc4ccccc4)cc3)nc2)c1` [CBK037679], the “% of control remaining” value is reported as 87.1781%.

Regarding `CC1CC(C)CN(CCCNC(=O)c2cc(C(C)C)nn2C)C1` (centres unmarked) [CBK282665], the “% of control remaining” value amounted to 102.012%.

Regarding `CSc1nnnn1-c1cccc(NC(=O)N2CCCN(C)CC2)c1` [CBK304180], the “% of control remaining” value amounted to 167.48%.

For `CC1(C)CCCN1C1=NC(=O)C(c2ccccc2)O1` (centres unmarked) [CBK023070], the “% of control remaining” value is 86.2955%.

Turning to `O=C(NCCc1c[nH]c2ccc(Cl)cc12)c1c(F)ccc(Cl)c1F` [CBK159756], the “% of control remaining” value was determined as 12.4242%.

As for `COc1ccc(NC(=S)NCCN2CCC(C)CC2)cc1Cl` [CBK267268], the “% of control remaining” value is 98.5694%.

Turning to `CCOc1cc(S(=O)(=O)NCc2ccccn2)ccc1Cl` [CBK266817], the “% of control remaining” value came to 106.995%.

As for `COc1cc(CNc2ccc(N3CCOCC3)c(Cl)c2)ccc1OCc1ccccc1F` [CBK074392], the “% of control remaining” value is recorded as 85.162%.

As to `Sc1nnc(C2CCCC2)n1CC1CCCO1` (centres unmarked) [CBK288413], the “% of control remaining” value came to 118.092%.

In the case of `O=C(CCc1ccc(Cl)cc1)NCCn1cncn1` [CBK283184], the “% of control remaining” value came out at 93.4259%.

As for `Cc1nc2c(c(=O)[nH]1)CCN(C(=O)c1oc3ccccc3c1C)C2` [CBK283752], the “% of control remaining” value turned out to be 85.385%.

In the case of `O=c1cc2oc3cc(O)c(O)cc3c(-c3ccc(OCc4cccc([N+](=O)[O-])c4)cc3)c-2cc1O` [CBK265408], the “% of control remaining” value came out at 131.649%.

In the case of `COCCn1c(SC(C)C(=O)N2CCOCC2)nc2cc(Cl)ccc21` (centres unmarked) [CBK305580], the “% of control remaining” value was determined as 175.619%.

Take `CN(C)c1cccc2c(S(=O)(=O)n3c(=O)n(Cc4ccc(S(C)(=O)=O)cc4)c4ccccc43)cccc12` [CBK106535]: the “% of control remaining” value stood at 109.795%.

In the case of `CC1(C)CC(=O)C(C(=S)Nc2ccccc2)=C(NCc2ccccc2)C1` [CBK264498], the “% of control remaining” value amounted to 100%.

For the compound `COc1ccccc1N1CCN(CC(CC(=O)Nc2ccccc2)C(=O)O)CC1` (centres unmarked) [CBK286766], the “% of control remaining” value was 149.291%.

As for `CCN1CCC(CNS(=O)(=O)c2ccc(N3CCCC3=O)cc2)CC1` [CBK305663], the “% of control remaining” value came out at 90.92%.

As for `O=C(CN1CCCC1)Nc1sc2c(c1C(=O)Nc1ccccc1)CCCC2` [CBK268800], the “% of control remaining” value was 92.8186%.

As for `COc1ccc(CC(=O)NCC(c2cccs2)N2CCOCC2)cc1F` (centres unmarked) [CBK305618], the “% of control remaining” value was found to be 152.17%.

Consider `CCOC(=O)CN(Cc1ccccc1)S(=O)(=O)c1ccc(C(C)C)cc1` [CBK043404], for which the “% of control remaining” value is 118.222%.

For the compound `CN(C)c1ccc(/C=C(\C#N)c2nn(-c3ccccc3)c(N)c2C#N)cc1[N+](=O)[O-]` [CBK262532], the “% of control remaining” value was 100%.

As for `O=C1NC(=O)C2(CCN(C(=O)c3csc4c3CCCC4)CC2)N1` [CBK305601], the “% of control remaining” value turned out to be 116.89%.

For the compound `Cc1cccc(C)c1NC(=O)C(C)Sc1nc2ccccc2c(=O)n1CC1CCCO1` (centres unmarked) [CBK068151], the “% of control remaining” value was 117.28%.

In the case of `O=C(NC(c1ccc(Cl)cc1)c1ccsc1)C1CCN(CCOc2ccccc2)CC1` (centres unmarked) [CBK147951], the “% of control remaining” value came to 110.005%.

On to `CS(=O)(=O)Nc1ccc(-c2ccc3c(c2)CCO3)c2ccccc12` [CBK083753], for which the “% of control remaining” value was determined as 83.6025%.

Regarding `Cn1nc2n(c1=O)CC(C(=O)NCCN1CCCc3ccccc31)CC2` (centres unmarked) [CBK307206], the “% of control remaining” value came out at 138%.

In the case of `Cc1cc2c(o1)CCc1sc(N(C)C(=O)C3CCCO3)nc1-2` (centres unmarked) [CBK281932], the “% of control remaining” value is listed as 119.926%.

Consider `CCn1c(C2CC(=O)N(c3ccc(C)cc3C)C2)nc2ccccc21` (centres unmarked) [CBK287505], for which the “% of control remaining” value was determined as 150.911%.

For `COc1ccc(S(=O)(=O)N(C)CC(=O)O)c2ccccc12` [CBK268459], the “% of control remaining” value is recorded as 79.9282%.

As for `CN1CCN(CCCNC(=O)N2CCN(c3cc(C(F)(F)F)ccn3)CC2)CC1` [CBK156431], the “% of control remaining” value is listed as 114.501%.

For the compound `Cn1c(=O)n(C)c2cc(CNC3(c4ccccc4)CC3)ccc21` [CBK282746], the “% of control remaining” value is 134.754%.

Turning to `Cc1cc(OC(C)C(=O)Nn2cnnc2)ccc1Cl` (centres unmarked) [CBK269690], the “% of control remaining” value worked out at 135.398%.

For the compound `CN(C)CCN(C)c1nc(-c2ccccc2F)cn2ccnc12` [CBK037406], the “% of control remaining” value is on record as 105.934%.

Consider `O=C(O)c1ccc(NCc2ccccc2OCc2ccc(F)cc2)cc1` [CBK266487], for which the “% of control remaining” value is recorded as 140.34%.

As to `Cc1c(NC(=O)CSc2nnc(-c3cccc([N+](=O)[O-])c3)n2C)c(=O)n(-c2ccccc2)n1C` [CBK266757], the “% of control remaining” value was 143.287%.

For `CN(C)C(=O)c1ccc(Cn2ccnc(N3CCC(Sc4ccccc4)CC3)c2=O)cc1` [CBK153651], the “% of control remaining” value stood at 100.589%.

With `O=C(O)CCCN1C(=O)c2ccccc2C1=O` [CBK056635], the “% of control remaining” value was determined as 102.19%.

For the compound `CCSc1ccc(-c2cc(N(C)c3cccc(C)c3)n3nccc3n2)cc1` [CBK037115], the “% of control remaining” value was found to be 158.592%.

With `Cc1nn(-c2ccccc2)c2sc(C(=O)N3CCN(C(=O)c4ccccc4)CC3)cc12` [CBK297554], the “% of control remaining” value came to 134.5%.

For the compound `CNS(=O)(=O)c1ccc(NC(=O)Nc2ccc([N+](=O)[O-])cc2OC)cc1` [CBK266939], the “% of control remaining” value amounted to 108.971%.

With `COC(=O)/C=C/c1cn(C2CC(O)C(CO)O2)c(=O)[nH]c1=O` (centres unmarked) [CBK201244], the “% of control remaining” value is listed as 193.572%.

Turning to `COc1ccc(C(=O)Nc2nc(-c3ccc4c(c3)OCCO4)cs2)cc1OC` [CBK287588], the “% of control remaining” value worked out at 133.884%.

On to `Cc1ccccc1C(=O)Nc1cc(NC(=O)c2ccccc2C)cc(C(=O)O)c1` [CBK262007], for which the “% of control remaining” value is given as 100%.

As for `O=C(CN1C(=O)c2ccccc2C1=O)Nc1cccc2cccnc12` [CBK261320], the “% of control remaining” value stood at 115.159%.

In the case of `Cc1cccc(C(=O)NCCc2nc3ccccc3[nH]2)c1` [CBK263493], the “% of control remaining” value came out at 114.423%.
